Test results from article PMC4978524.
No constants are given. Whether binding was seen depends on the method and setting. Binding seen in cells or lysates may run through a third protein. Some results given as binding are weak or reduced against the parent protein; the word gives no strength.

Chains of the proteins cited; added tags and fusions are not shown. Residues count along the entry.
UniProt Q24311: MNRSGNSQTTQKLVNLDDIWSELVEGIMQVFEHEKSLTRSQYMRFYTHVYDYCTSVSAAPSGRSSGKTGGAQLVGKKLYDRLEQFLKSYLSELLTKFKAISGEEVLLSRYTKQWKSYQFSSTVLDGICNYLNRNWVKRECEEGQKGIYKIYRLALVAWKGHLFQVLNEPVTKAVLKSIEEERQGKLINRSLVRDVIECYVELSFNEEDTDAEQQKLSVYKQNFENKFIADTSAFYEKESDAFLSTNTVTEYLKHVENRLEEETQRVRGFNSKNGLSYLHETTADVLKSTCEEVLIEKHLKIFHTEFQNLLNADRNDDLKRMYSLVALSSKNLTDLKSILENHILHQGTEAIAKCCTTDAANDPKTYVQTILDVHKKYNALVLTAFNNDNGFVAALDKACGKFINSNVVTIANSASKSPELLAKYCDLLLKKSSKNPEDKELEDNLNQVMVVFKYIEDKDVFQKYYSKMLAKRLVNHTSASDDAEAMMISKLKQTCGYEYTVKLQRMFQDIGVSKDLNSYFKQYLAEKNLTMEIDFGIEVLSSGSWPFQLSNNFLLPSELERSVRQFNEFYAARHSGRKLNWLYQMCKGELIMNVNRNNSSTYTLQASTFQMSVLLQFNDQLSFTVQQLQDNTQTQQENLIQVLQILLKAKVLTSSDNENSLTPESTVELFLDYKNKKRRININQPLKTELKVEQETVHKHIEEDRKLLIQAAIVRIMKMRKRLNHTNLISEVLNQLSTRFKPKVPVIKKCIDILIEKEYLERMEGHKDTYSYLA
UniProt Q9V3Z6: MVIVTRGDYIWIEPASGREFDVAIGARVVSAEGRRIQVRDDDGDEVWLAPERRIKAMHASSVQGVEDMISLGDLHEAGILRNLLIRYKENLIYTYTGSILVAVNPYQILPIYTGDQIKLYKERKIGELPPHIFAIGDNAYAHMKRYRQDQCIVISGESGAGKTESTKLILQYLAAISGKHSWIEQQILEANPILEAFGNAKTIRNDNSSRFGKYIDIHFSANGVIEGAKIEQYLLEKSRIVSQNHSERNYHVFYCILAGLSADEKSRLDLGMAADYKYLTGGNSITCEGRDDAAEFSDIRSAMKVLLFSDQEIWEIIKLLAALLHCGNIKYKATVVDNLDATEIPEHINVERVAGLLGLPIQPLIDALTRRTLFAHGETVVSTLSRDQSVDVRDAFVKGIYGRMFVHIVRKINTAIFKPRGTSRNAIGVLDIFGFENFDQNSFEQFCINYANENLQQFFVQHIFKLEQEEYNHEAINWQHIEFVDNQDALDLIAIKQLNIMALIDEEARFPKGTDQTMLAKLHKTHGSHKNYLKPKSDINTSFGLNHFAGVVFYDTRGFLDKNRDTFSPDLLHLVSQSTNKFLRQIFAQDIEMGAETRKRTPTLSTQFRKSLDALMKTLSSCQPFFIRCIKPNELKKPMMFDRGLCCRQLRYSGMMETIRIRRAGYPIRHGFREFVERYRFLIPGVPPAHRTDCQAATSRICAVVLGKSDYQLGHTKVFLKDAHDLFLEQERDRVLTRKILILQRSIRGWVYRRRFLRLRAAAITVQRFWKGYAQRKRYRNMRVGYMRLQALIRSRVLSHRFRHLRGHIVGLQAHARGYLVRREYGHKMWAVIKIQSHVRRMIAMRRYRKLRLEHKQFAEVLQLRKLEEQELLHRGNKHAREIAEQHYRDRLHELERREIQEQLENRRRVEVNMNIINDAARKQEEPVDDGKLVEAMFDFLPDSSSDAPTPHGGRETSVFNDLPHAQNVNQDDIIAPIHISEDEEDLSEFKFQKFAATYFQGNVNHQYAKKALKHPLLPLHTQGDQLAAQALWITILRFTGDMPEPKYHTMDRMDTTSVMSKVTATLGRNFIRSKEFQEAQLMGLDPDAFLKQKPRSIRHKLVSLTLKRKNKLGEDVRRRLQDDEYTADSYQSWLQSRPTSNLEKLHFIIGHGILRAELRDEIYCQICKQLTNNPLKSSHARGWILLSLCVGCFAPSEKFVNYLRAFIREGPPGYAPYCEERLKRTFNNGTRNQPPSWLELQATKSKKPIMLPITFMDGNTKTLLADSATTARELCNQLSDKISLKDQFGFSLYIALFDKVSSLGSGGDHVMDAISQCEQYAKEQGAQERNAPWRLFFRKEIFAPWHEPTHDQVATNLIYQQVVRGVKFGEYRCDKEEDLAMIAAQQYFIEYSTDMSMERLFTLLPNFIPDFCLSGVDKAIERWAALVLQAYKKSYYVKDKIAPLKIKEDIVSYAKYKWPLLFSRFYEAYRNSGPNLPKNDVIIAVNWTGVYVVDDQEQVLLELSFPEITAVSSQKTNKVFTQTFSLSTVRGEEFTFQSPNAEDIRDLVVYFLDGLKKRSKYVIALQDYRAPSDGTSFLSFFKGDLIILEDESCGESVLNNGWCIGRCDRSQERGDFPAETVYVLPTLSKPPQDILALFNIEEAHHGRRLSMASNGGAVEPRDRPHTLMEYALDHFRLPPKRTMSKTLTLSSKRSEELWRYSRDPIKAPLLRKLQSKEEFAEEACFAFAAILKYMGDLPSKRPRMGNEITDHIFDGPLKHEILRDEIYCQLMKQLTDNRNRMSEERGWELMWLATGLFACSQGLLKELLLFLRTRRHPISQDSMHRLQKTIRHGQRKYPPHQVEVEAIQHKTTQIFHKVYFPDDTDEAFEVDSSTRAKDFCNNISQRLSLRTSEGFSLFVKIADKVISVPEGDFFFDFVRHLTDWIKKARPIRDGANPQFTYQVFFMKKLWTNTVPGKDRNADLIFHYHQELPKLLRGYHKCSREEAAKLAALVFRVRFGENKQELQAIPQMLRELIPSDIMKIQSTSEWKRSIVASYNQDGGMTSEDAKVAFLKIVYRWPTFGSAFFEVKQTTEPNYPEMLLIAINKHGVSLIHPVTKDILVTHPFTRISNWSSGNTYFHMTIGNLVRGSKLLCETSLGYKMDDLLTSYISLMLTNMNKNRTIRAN
UniProt Q9VAF5, residues 29-1706: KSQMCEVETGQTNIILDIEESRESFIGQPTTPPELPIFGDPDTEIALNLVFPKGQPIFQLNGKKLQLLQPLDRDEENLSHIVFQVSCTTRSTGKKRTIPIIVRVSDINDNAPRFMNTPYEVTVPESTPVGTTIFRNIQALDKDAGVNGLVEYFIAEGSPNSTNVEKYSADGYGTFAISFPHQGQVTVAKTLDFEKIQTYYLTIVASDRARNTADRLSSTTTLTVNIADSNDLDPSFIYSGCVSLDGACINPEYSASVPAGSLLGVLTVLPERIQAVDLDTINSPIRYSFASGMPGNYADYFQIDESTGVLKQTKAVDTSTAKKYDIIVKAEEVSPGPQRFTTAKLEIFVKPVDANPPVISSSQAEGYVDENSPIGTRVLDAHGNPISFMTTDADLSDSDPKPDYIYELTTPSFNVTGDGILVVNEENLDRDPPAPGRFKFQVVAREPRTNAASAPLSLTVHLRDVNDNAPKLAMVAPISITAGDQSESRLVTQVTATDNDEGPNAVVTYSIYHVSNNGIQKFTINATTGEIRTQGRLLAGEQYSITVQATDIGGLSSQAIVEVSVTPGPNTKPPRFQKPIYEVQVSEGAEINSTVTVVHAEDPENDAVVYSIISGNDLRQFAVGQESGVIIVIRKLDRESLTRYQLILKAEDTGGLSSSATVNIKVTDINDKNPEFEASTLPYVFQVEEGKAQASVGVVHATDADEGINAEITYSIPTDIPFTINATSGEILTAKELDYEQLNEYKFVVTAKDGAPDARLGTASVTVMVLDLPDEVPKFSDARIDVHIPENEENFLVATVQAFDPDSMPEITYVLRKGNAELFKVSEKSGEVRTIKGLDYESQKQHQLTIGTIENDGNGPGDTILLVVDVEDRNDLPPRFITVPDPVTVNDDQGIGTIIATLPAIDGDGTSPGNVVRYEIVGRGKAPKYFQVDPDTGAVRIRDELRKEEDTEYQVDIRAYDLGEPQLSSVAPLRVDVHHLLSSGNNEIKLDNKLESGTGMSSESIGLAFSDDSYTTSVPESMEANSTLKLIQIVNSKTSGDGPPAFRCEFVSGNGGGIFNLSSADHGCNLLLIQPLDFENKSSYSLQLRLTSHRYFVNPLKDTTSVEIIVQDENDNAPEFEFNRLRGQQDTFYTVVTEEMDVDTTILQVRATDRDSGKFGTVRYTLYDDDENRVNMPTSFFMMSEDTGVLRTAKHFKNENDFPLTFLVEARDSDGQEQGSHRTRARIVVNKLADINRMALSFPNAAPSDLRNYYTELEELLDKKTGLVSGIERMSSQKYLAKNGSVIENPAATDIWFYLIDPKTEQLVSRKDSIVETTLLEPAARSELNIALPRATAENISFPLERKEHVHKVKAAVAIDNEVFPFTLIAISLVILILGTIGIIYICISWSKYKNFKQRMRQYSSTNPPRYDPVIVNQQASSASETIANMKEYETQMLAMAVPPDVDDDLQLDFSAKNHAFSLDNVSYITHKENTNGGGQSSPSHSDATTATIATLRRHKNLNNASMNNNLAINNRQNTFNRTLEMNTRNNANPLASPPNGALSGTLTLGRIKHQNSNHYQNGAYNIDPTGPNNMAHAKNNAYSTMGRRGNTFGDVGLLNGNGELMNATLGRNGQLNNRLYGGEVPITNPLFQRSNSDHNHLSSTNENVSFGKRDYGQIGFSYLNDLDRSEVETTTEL
UniProt Q8VDD5: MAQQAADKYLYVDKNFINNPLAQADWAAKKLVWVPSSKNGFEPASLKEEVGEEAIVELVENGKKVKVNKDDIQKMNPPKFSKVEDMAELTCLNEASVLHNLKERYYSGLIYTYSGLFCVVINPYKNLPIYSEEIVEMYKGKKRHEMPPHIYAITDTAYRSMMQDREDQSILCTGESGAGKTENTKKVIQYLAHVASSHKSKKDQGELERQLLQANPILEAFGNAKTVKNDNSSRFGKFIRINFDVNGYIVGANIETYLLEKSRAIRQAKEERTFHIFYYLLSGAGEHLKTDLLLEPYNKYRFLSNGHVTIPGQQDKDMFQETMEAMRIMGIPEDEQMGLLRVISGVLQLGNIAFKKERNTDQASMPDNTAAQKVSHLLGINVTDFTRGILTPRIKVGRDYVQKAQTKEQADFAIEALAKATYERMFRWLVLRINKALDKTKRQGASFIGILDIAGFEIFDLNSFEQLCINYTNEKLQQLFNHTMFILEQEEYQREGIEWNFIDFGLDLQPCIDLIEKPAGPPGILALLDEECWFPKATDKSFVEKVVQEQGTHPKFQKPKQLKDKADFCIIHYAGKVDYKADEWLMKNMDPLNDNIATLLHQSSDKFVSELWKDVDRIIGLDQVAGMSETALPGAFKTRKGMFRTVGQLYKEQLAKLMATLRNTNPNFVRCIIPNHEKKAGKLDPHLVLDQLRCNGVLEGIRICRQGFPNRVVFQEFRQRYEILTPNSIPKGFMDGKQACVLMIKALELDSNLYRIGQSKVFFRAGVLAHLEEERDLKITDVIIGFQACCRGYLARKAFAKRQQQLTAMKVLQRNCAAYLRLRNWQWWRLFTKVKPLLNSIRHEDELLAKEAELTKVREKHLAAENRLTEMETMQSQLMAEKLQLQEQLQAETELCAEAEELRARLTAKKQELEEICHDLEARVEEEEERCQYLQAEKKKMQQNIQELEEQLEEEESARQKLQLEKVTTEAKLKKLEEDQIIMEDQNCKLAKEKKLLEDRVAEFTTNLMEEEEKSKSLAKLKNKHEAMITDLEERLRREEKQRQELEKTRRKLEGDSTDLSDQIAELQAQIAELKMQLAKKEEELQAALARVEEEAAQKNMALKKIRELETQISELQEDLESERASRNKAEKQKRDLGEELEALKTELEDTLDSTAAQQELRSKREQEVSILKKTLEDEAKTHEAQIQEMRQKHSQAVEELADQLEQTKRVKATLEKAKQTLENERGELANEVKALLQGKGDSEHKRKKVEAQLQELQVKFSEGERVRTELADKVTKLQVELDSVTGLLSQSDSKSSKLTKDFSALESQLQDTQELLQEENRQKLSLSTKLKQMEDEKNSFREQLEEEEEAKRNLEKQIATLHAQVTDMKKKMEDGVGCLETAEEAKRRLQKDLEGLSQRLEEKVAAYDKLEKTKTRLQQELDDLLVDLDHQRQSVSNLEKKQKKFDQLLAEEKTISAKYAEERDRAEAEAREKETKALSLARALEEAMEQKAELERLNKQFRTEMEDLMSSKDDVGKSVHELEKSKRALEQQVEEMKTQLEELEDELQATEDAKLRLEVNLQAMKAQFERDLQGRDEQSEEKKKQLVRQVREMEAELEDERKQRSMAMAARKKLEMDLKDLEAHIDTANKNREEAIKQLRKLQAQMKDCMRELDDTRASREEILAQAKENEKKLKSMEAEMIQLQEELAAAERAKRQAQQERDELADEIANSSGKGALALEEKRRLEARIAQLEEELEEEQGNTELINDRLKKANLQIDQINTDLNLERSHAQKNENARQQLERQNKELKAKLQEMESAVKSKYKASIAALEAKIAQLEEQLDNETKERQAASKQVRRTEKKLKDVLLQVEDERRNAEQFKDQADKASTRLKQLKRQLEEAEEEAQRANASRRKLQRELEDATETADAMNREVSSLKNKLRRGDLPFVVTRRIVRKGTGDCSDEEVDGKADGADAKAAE

Experiments:
[1] = target: Cul1-GFP (Drosophila Cullin1, in S2 cells) (Drosophila) (UniProt Q24311); experiment: co-IP; S2 cells transfected with GFP-tagged and V5-tagged constructs, lysed 48 hr after transfection (Tris-HCl 25 mM pH 7.5, NaCl 150 mM, NP-40 1%), precipitated with GFP nanobody conjugated beads overnight at 4°C, western blots
[2] = target: MyoVIIa-GFP (Drosophila Myosin VIIa, in S2 cells) (Drosophila) (UniProt Q9V3Z6); experiment: as above
[3] = target: HA-Cad99C-V5 fusion protein, full length (Drosophila) (UniProt Q9VAF5); experiment: co-IP; reciprocal: HA-Cad99C-V5 expressed in S2 cells, anti-HA or anti-V5 immunoprecipitation from lysate, western blots
[4] = target: MyoIIa (mouse, encoded by MYH9) (mouse (endogenous in P5 cochlea)) (UniProt Q8VDD5); experiment: co-IP; anti-MyoIIa antibody, P5 mouse cochlear (inner ear) lysate, western blotting

Q: Which binding [1] does the source give for “Cad99C-V5, full length 250 kDa protein (Drosophila homologue of PCDH15) (from UniProt Q9VAF5 29-1706)” here?
A: no binding

Q: And the binding [2]?
A: no binding

Q: For “MyoVIIa-GFP (Drosophila Myosin VIIa, in S2 cells) (from UniProt Q9V3Z6 1-2167)”, which binding [3] is on record?
A: no binding

Q: With “MyoVIIa (mouse) (from UniProt P97479 1-2215)” as the substance, how does the binding [4] read?
A: binds

Q: For “Cul1-GFP (Drosophila Cullin1, in S2 cells) (from UniProt Q24311 1-774)”, which binding [3] is on record?
A: no binding
